Several values for one entry are separate records, joined by “and”; a condition that tells them apart may be missing. Equal entries are not always repeated. Among all 410,000 compounds or so, about 18,000 (4.4%) were called active. Inconclusive means that the source gave no clear call. Such entries were picked first, then a sample of the others. Cut-off read from the data, not from the text of the source: active = activity change below about -60%; inconclusive = no clear call, values can overlap the other calls; inactive = above about -39%.
Assay: qHTS Assay for inhibitors of the human cytomegalovirus (HCMV)
Conditions: HFF cells, HCMV-luciferase reporter, 72 h; at 57.5 µM; stronger effect = lower value
In short: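 Cell-based, HFFs, 1000 cells/well, 16 h 37C; cpds in DMSO + HCMV-luc, MOI 1 PFU/cell; 72 h 37C; OneGlo luminescence after 5 min RT; norm. to buffer vs Salinomycin 10uM.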
% is set by controls: 0 for no effect and ±100 for the full control effect.

Compound	activity change, negative = inhibition
COc1cccc(CNC(=O)c2ccc3c(Cl)c4c(nc3c2)CCCC4)c1	inconclusive: -55%
CCOc1cc(CNCCCN2CCOCC2)ccc1OCC(=O)Nc1cccc2ccccc12	inconclusive: -47.9%
Cc1ccc(C(=O)O/N=C/c2c(N3CCOCC3)n(C)c3ccccc23)cc1	active: -100%
Cn1cnc(S(=O)(=O)N2CCCCC2c2cc(C(=O)NCc3ccc(Cl)c(Cl)c3)no2)c1 (stereo unspecified)	inactive: 44.5%
O=C(NCC1CCN(Cc2cccc(Cl)c2)CC1)C1CCCN(c2ncnc3c2nc2n3CCCCC2)C1 (stereo unspecified)	inconclusive: -58%
COc1cc(NC(=O)c2ccc(F)cc2)c(OC)cc1NC(=O)CN1CCCCC1	inconclusive: -40.7%
Cc1c(O)ccc2c(CN(C)Cc3ccccc3)cc(=O)oc12	active: -66.7%
O=C1c2ccccc2S(=O)(=O)N1CC(O)COc1ccc(Br)cc1 (stereo unspecified)	inconclusive: -45.7%
COCOc1cccc(CN2CCC2(C)C(=O)Nc2ccc(C)c(O)c2)c1 (stereo unspecified)	inconclusive: -41%
CCOC(=O)NN1C(=O)c2ccccc2NC1c1ccc(OC)c(OC)c1 (stereo unspecified)	inconclusive: -42.9%
Cc1ccc(S(=O)(=O)N2CCC(c3nnc(-c4cccc(C)c4)o3)CC2)cc1	active: -92.5%
CCC(C(=O)NCc1cccc(C)c1)n1nc(C)c2c(C)n(-c3ccccc3)nc2c1=O (stereo unspecified)	inconclusive: -40.1%
CCN(CC)c1ccc(/C=N/NC(=O)OC)c(O)c1	inactive: 44%
O=c1c2ccccc2c(/C=N/c2ncn[nH]2)c(O)n1Cc1ccccc1	inconclusive: -51.1% and active: -82.4%
O=C(Nc1cccnc1)c1cccs1	inconclusive: -44.6%
O=C(Nc1nnc(-c2ccco2)o1)c1ccc(S(=O)(=O)N2CCCCC2)cc1	inconclusive: -49.6%
CCc1ccc(CNC(=O)c2ccc(NC(=O)N3CCSc4ncccc43)cc2)cc1	inconclusive: 0%
COc1ccc(NC(=O)C(=O)c2cc(C)n(-c3ccc(C)cc3)c2C)cc1Cl	inconclusive: -48.3%
CCN1C(=O)[C@@H]2[C@@H](c3ccc(-c4cc(C(C)=O)cs4)cc3)N3CCC[C@@]3(C(=O)OC)[C@@H]2C1=O	inactive: -3.56%
Cc1cc(=O)oc2cc(OCC(O)CN3CCN(c4ccccc4)CC3)ccc12 (stereo unspecified)	inconclusive: -50.3%
Cc1ccc2sc(N3CCN(C(=O)c4ccc([N+](=O)[O-])o4)CC3)nc2c1C	inactive: -7.45%
COc1ccc(NC(=O)CN2CCN(c3ccccc3C)CC2)cc1	inactive: 26.8%

Compound	activity change, negative = inhibition
Cc1ccc(Cl)cc1NC(=O)N(C)CCO	inactive: -13.2%
COc1ccc(C(=O)Nc2nnc(SCC(=O)NC3CC3)s2)cc1	inactive: 94.1%
CC1CCCN(S(=O)(=O)c2ccc(NC(=O)C3CCN(C(=O)c4ccco4)CC3)cc2)C1 (stereo unspecified)	active: -60.1%
CC(C)COP(=O)(c1ccc(N(C)C)cc1)C(O)c1ccccc1 (stereo unspecified)	inactive: -3.26%
O=C1C=CC(=O)C(C2=C3C(=O)N(CCc4ccccc4)CC(=O)N3CCC2)=C1	active: -99.1%
Cc1nc2sc(C(c3ccco3)N3CCN(c4ccc(F)cc4)CC3)c(O)n2n1 (stereo unspecified)	inconclusive: -44.8%
Cc1ccc(-c2c(NCCc3ccccc3)c(=O)c2=O)cc1	inactive: -22.3%
CN(C)CCCN(Cc1ccccc1)C(=S)Nc1ccc(SC(F)F)cc1	inconclusive: -47.3%
COc1ccc(-c2nn(-c3ccccc3)cc2/C=C\C(=O)Nc2ccc(C(=O)O)cc2)cc1	inconclusive: -50.5%
COC(=O)c1sccc1NC(=O)c1cnc2cc(C)nn2c1C	inconclusive: -49.8%
COc1ccc(NC(C)=O)cc1NC(=O)CSc1nnc(C2CCCCC2)n1N	inconclusive: -42.4%
Cc1ccsc1/C=C1\SC(N2CC(C)OC(C)C2)=NC1=O (stereo unspecified)	inactive: 20%
COc1ccc(C(=O)CSc2nnc(-c3ccco3)c(-c3ccco3)n2)cc1	inconclusive: -50.2%
COc1ccccc1-n1c(-c2ccccc2)c[nH]c1=S	inactive: -13.8%
COc1ccc(CCNC(=O)Cn2c(=O)nc(-c3ccccc3F)c3cc(Cl)ccc32)cc1OC	inactive: 157%
CN(C)c1ccc(CNc2ncnc3sccc23)cc1	active: -82%
O=C(C1CCC(CNS(=O)(=O)c2cccs2)CC1)N1CCN(c2ccc(Cl)cc2)CC1 (stereo unspecified)	active: -83.8% and active: -93%
CC(=O)Oc1ccc(C2=Cc3ccc(OC(C)=O)cc3OC2C)cc1 (stereo unspecified)	inconclusive: -52.4%
CCOc1ccc(/C=N/NC(=O)C2CC2)c(OCC)c1	inactive: -27.5%
CC(C)c1ccc(NC(=O)c2cc(S(=O)(=O)NC3CCCCC3)ccc2F)cc1	inconclusive: -49.8%
Cc1onc(-c2ccccc2)c1-c1nnc(CN2CCN(S(=O)(=O)c3ccccc3F)CC2)o1	inconclusive: -45.2%
O=C(Cn1c(=O)oc2ccccc21)NCCc1ccccc1Cl	inconclusive: -43.3%

Compound	activity change, negative = inhibition
CCc1c(C(=O)NNC(=S)NCC(C)C)csc1C	inactive: 16.6%
COc1ccc(S(=O)(=O)NC(C)C(=O)NCc2ccco2)cc1OC (stereo unspecified)	inconclusive: -48.7%
Cc1ccc(C2(c3ccccc3)NC(=O)N(CC(=O)NCc3ccco3)C2=O)cc1C (stereo unspecified)	inconclusive: -45.7%
O=C(CN1CCCCCC1)Nc1ccc(Br)cn1	inconclusive: -40.6%
CC(=O)N1CCc2cc(NC(=O)C3(C)CCN3Cc3ccccc3OC(F)F)ccc21 (stereo unspecified)	active: -61%
COc1ccc(-n2c(SC(C)C(=O)Nc3ncc(Cl)cc3Cl)nc3ccccc32)cc1 (stereo unspecified)	active: -85%
CC1=C(C(=O)N(C(C)C)C(C)C)CC(CC(=O)NCc2cccc3ccccc23)C(=O)N1CCC1=CCCCC1 (stereo unspecified)	inconclusive: -41.5%
O=C(O)CC(NC(=O)C(c1ccccc1)c1ccccc1)c1ccc(F)cc1 (stereo unspecified)	inconclusive: -42.7%
COCCCNC(=O)CCn1c(=O)c2ccccc2n(CC(=O)Nc2c(C)cc(C)cc2C)c1=O	inactive: 15.9%
COc1ccc(-c2cc(C3CCN(Cc4ccc([N+](=O)[O-])cc4)CC3)[nH]n2)cc1	inconclusive: -52.2%
Cc1ccccc1-c1csc(C(O)(c2ccccc2)C(F)(F)F)n1 (stereo unspecified)	inactive: 2.86%
CC[n+]1c(/C=C/c2cc([N+](=O)[O-])ccc2O)ccc2ccccc21	inconclusive: -42.1%
O=C(N/N=C/c1ccc([N+](=O)[O-])cc1)c1ccc(NS(=O)(=O)c2cccs2)cc1	inactive: -2.31%
Cc1ccc(CNC(=O)C2CCC(CNS(=O)(=O)c3cccc4cccnc34)CC2)cc1 (stereo unspecified)	inactive: -5.94%
Brc1ccc(N=Nc2ccc3ccccc3n2)cc1	inconclusive: -59%
Cc1cc(Sc2nc(N)ncc2[N+](=O)[O-])ncn1	active: -99.2%
Cc1cc(C)n(S(=O)(=O)/C=C/c2ccccc2)n1	active: -67.4%
CN(Cc1ccc(Br)cc1)CC(O)COc1cccc(Br)c1 (stereo unspecified)	inconclusive: -56.3%
CCOC(=O)C1CCN(S(=O)(=O)c2cc(-c3onc(C)c3C)ccc2OC)CC1	inactive: 22.9%
O=C(/C=C/c1ccc(Cl)cc1)NC(=S)Nc1ccc(N2CCOCC2)c(Cl)c1	inconclusive: -53.3%
COc1cc(-c2nnc(NC(=O)c3ccc(S(=O)(=O)N4CCOCC4)cc3)o2)cc(OC)c1OC	inactive: -2.08%
Cc1ccc(-c2csc(N(CCO)CCCn3c(C(F)(F)F)nc4ccccc43)n2)cc1	active: -64.4%

Among those listed so far, these contain a CF3 group:
Compound	activity change, negative = inhibition
Cc1ccccc1-c1csc(C(O)(c2ccccc2)C(F)(F)F)n1 (stereo unspecified)	inactive: 2.86%
Cc1ccc(-c2csc(N(CCO)CCCn3c(C(F)(F)F)nc4ccccc43)n2)cc1	active: -64.4%

Pulled by compound from above, 3 records:
Compound	activity change, negative = inhibition
COc1ccc(S(=O)(=O)NC(C)C(=O)NCc2ccco2)cc1OC (stereo unspecified)	inconclusive: -48.7%
CC1=C(C(=O)N(C(C)C)C(C)C)CC(CC(=O)NCc2cccc3ccccc23)C(=O)N1CCC1=CCCCC1 (stereo unspecified)	inconclusive: -41.5%
O=C(O)CC(NC(=O)C(c1ccccc1)c1ccccc1)c1ccc(F)cc1 (stereo unspecified)	inconclusive: -42.7%

Next results follow:

Compound	activity change, negative = inhibition
CSc1nsc(N/N=C/c2ccccc2)c1C#N	inactive: -39.5%
O=C(NCc1ccccc1)O[C@H]1CC[C@@]23CCCN2C(=O)CCC[C@H]3[C@H]1Cc1ccccc1	inactive: -11%
NC(=S)N/N=C1\CC(n2nnnc2-c2ccccc2Cl)C2COC1O2 (stereo unspecified)	inconclusive: -41.1%
CCCCc1c(-c2ccc(Br)cc2)ncn1CCc1ccccc1OC	active: -102%
Clc1ccc(-c2cn3cccnc3n2)cc1Cl	inconclusive: -56.6%
CCOC(=O)C1(CC2CC2)CCN(C(=O)c2ocnc2C)CC1	inactive: 2.2%
Cc1sc2ncn(CC(=O)Nc3ccccc3F)c(=O)c2c1-c1ccccc1	inconclusive: -48.2%
COc1ccccc1NC(=O)CCn1cnc2ccccc2c1=O	inactive: 28.2%
CCC1CN(S(=O)(=O)c2cc(-c3cc(C)no3)ccc2OC)c2cc(C)ccc2O1 (stereo unspecified)	inconclusive: 0%
Cc1ccc(C(C)C)c(OCCNC(=O)c2cncc(Br)c2)c1	inactive: -12.3%
COc1ccccc1NC(=O)C1=C(C)N(c2ccccc2)C(=S)NC1c1cccc(C(F)(F)F)c1 (stereo unspecified)	active: -95.8%
Cc1ccc(S(=O)(=O)N2CCN(C(=O)COC(=O)c3ccc([N+](=O)[O-])o3)CC2)c(C)c1	inconclusive: 0%
NNC(=O)CN1CCCc2ccccc21	inconclusive: -55.2%
CC(=O)c1c(C)n(CC(=O)NCc2ccc3c(c2)OCO3)c2ccccc12	inconclusive: -53.3%
CC(C)CNC(=O)C1(C)CCN1C(=O)c1ccc(C(C)(C)C)cc1 (stereo unspecified)	inconclusive: -56.1%
NC(=O)N/N=C/c1c(F)cccc1F	inconclusive: -40.3%
COc1ccc(C2=Nc3ccccc3N(C(=O)c3ccc(C(F)(F)F)cc3)C2C(=O)NCc2ccccc2)cc1 (stereo unspecified)	inconclusive: -40.2%
Clc1ncc(CN2CCN(c3ccccc3)CC2)s1	inconclusive: -58.4%
O=C(NCc1ccccc1Cl)C(=O)NCC1OCCN1S(=O)(=O)c1cccs1 (stereo unspecified)	inconclusive: -44.3%
CC1CCCN(Cc2c(O)ccc3c(=O)c(Oc4ccccc4Cl)c(C(F)(F)F)oc23)C1 (stereo unspecified)	inactive: -14.2%
